Measured values taken from patent publication US4186198 (dated 1980).

Experiment: general procedure: solution-phase peptide synthesis; OSu active ester
Conditions: late stage modification step

L-(pyro)glutamyl-L-seryl-Glycyl-Glycine amide (pGlu-Ser-Gly-Gly(NH2))
step yield: 50%
